Results on 29 substances are retold here after US6153587A (Laboratoire THERAMEX, priority 1996, dated 2000).

The first series in a line: general procedure: Fmoc solid-phase peptide synthesis; Rink resin. To be noted: whole synthesis.
Turning to “pGlu-His-Trp-Ser-Tyr-SPL-Leu-Arg-Pro-AzaGly-NH2”, the crude mass turned out to be 0.265 g.

A short description of a further series: solid-phase peptide synthesis. The following applies: whole synthesis.
“AcDNal-DpClPhe-DPal-Ser-Tyr-SPL-Leu-Arg-Pro-DAlaNH2” gave an isolated mass of 21 mg.

Consider “pGlu-His-Trp-Ser-Tyr-SPL-Leu-Arg-Pro-NEt”, for which the isolated mass came out at 19 mg.

“AcSar-His-Trp-Ser-Tyr-SPL-Leu-Arg-Pro-NEt” returned an isolated mass of 24 mg.

In turn, “pGlu-His-Nal-Ser-Tyr-SPL-Leu-Arg-Pro-Gly-NH2” registered an isolated mass of 68 mg.

Regarding “pGlu-DPhe-Trp-Ser-Tyr-SPL-Leu-Arg-Pro-DAlaNH2”, the isolated mass is recorded as 27 mg.

In turn, “AcSar-His-Nal-Ser-Tyr-SPL-Leu-Arg-Pro-NEt” displayed an isolated mass of 36 mg.

In turn, “pGlu-His-Trp-Ser-Tyr-SPL-Leu-Arg-Pro-Gly-NH2” had a crude mass of 532 mg and an isolated mass of 56 mg.

Regarding “AcDNal-DpCtPhe-DPal-Ser-Tyr-SPL-Npg-IprLys-Pro-DAlaNH2”, the isolated mass was determined as 85 mg.

As for “AcDNal-DpClPhe-DPal-Ser-NicLys-SPL-Npg-Arg-Pro-DAlaNH2”, the isolated mass was 73 mg.

For “pGlu-His-Trp-DSer-Tyr-SPL-Leu-Arg-Pro-Gly-NH2”, the isolated mass is on record as 75 mg.

With “pGlu-His-Trp-Ser-Tyr-SPL-Cha-Arg-Pro-NEt”, the isolated mass amounted to 16 mg.

Take “pGlu-His-Trp-Ser-Tyr-SPL-Npg-Arg-Pro-NEt”: the isolated mass turned out to be 53 mg.

On to “pGlu-His-Trp-Ser-Tyr-SPL-Hol-Arg-Pro-NEt”, for which the isolated mass turned out to be 26 mg.

On to “pGlu-His-Trp-MeSer-Tyr-SPL-Leu-Arg-Pro-Gly-NH2”, for which the isolated mass worked out at 15 mg.

In turn, “pGlu-His-Trp-Ser-Tyr-SPL-Leu-Arg-Pro-AzaGly-NH2” displayed an isolated mass of 44 mg.

Consider “AcDNal-DpClPhe-DTrp-Ser-Tyr-SPL-Leu-Arg-Prx)-DAlaNH2”, for which the isolated mass amounted to 6 mg.

“AcDNal-DpClPhe-DPal-Ser-NicLys-SPL-Npg-IprLys-Pro-DAlaNH2”: the isolated mass was found to be 97 mg.

In turn, “pGlu-His-Trp-Ser-Tyr-SPL-Nle-Arg-Pro-NEt” gave an isolated mass of 44 mg.

As for “pGlu-His-Trp-Ser(OBzl)-Tyr-SPL-Leu-Arg-Pro-Gly-NH2”, the crude mass is 328 mg and the isolated mass was 82 mg.

As to “AcDNal-DpClPhe-DBal-Ser-Tyr-SPL-Leu-Arg-Pr-DAlaNH2”, the isolated mass was determined as 13 mg.

Turning to “pGlu-His-1Nal-Ser-Tyr-SPL-Leu-Arg-Pro-Gly-NH2”, the isolated mass is recorded as 54 mg.

In turn, “AcDNal-DpClPhe-DPal-Ser-Tyr-SPL-Npg-Arg-Pro-DAlaNH2” showed an isolated mass of 10 mg.

Turning to “pGlu-His-pClPhe-Ser-Tyr-SPL-Leu-Arg-Pro-Gly-NH2”, the isolated mass was found to be 50 mg.

Substance “pGlu-His-Nal-Ser-Tyr-SPL-Leu-Arg-Pro-NEt” displayed an isolated mass of 21 mg.

“pGlu-DPhe-Trp-Ser-Tyr-SPL-Leu-Arg-Pro-Gly-NH2” returned an isolated mass of 25 mg.

“pGlu-His-Trp-Ser-Tyr-SPL-Tle-Arg-Pro-NEt” gave an isolated mass of 6 mg.

Substance “pGlu-His-INal-Ser-Tyr-SPL-Leu-Arg-Pro-NEt” came in with an isolated mass of 33 mg.

In the case of “AcDNal-DpCtPhe-DPal-Ser-IprLys-SPL-Npg-Arg-Pro-DAlaNH2”, the isolated mass is given as 78 mg.

The series is the same for the next values; noted with them: whole synthesis, scale 1.2 mmole.
“AcSar-His-Trp-Ser-Tyr-SPL-Leu-Arg-Pro-Gly-NH2” returned an isolated mass of 57 mg.

The same series, now with this note: whole synthesis, scale of the general procedure 1.2 mmole (Example 2, resin split into approximately 6 parts).
Consider “AcDNal-DpClPhe-DPal-Ser-Tyr-SPL-Leu-Arg-Pro-DAlaNH2”, for which the “final HPLC purity” value was 98.8% and the isolated yield result is listed as “approximate yield 5%”.

As for “pGlu-His-Trp-Ser-Tyr-SPL-Leu-Arg-Pro-NEt”, the “final HPLC purity” value is recorded as 95.2% and the isolated yield entry is recorded as “approximate yield 8%”.

Turning to “AcSar-His-Trp-Ser-Tyr-SPL-Leu-Arg-Pro-NEt”, the “final HPLC purity” value was 96.1% and the isolated yield result is “approximate yield 22%”.

“pGlu-His-Nal-Ser-Tyr-SPL-Leu-Arg-Pro-Gly-NH2”: the “final HPLC purity” value amounted to 99.2% and the isolated yield entry is listed as “approximate yield 25%”.

For the substance “pGlu-DPhe-Trp-Ser-Tyr-SPL-Leu-Arg-Pro-DAlaNH2”, the “final HPLC purity” value is listed as 99% and the isolated yield result is reported as “approximate yield 6%”.

With “AcSar-His-Nal-Ser-Tyr-SPL-Leu-Arg-Pro-NEt”, the “final HPLC purity” value is given as 95.1% and the isolated yield result was “approximate yield 15%”.

In the case of “pGlu-His-Trp-Ser-Tyr-SPL-Leu-Arg-Pro-Gly-NH2”, the “final HPLC purity” value worked out at 96.4% and the isolated yield result was “approximate yield 11%”.

As to “AcDNal-DpCtPhe-DPal-Ser-Tyr-SPL-Npg-IprLys-Pro-DAlaNH2”, the “final HPLC purity” value is reported as 97.5% and the isolated yield entry is reported as “approximative yield 20%”.

In the case of “AcDNal-DpClPhe-DPal-Ser-NicLys-SPL-Npg-Arg-Pro-DAlaNH2”, the “final HPLC purity” value stood at 99% and the isolated yield was 20% yield.

“pGlu-His-Trp-DSer-Tyr-SPL-Leu-Arg-Pro-Gly-NH2”: the “final HPLC purity” value came to 98.6% and the isolated yield entry is “approximate yield 27%”.

Turning to “pGlu-His-Trp-Ser-Tyr-SPL-Cha-Arg-Pro-NEt”, the “final HPLC purity” value is reported as 96% and the isolated yield result was “approximate yield 14%”.

Turning to “pGlu-His-Trp-Ser-Tyr-SPL-Npg-Arg-Pro-NEt”, the “final HPLC purity” value was found to be 98.1% and the isolated yield result is listed as “approximate yield 15%”.

Take “pGlu-His-Trp-Ser-Tyr-SPL-Hol-Arg-Pro-NEt”: the “final HPLC purity” value was found to be 97.5% and the isolated yield result is on record as “approximate yield 10%”.

As for “AcSar-His-Trp-Ser-Tyr-SPL-Leu-Arg-Pro-Gly-NH2”, the “final HPLC purity” value came out at 97.1% and the isolated yield result is given as “approximate yield 39%”.

Consider “pGlu-His-Trp-MeSer-Tyr-SPL-Leu-Arg-Pro-Gly-NH2”, for which the “final HPLC purity” value amounted to 96.3% and the isolated yield entry is “approximate yield 4%”.

Turning to “pGlu-His-Trp-Ser-Tyr-SPL-Leu-Arg-Pro-AzaGly-NH2”, the crude yield is 50% yield, the “final HPLC purity” value came to 98.2% and the isolated yield was 17% yield.

In the case of “AcDNal-DpClPhe-DTrp-Ser-Tyr-SPL-Leu-Arg-Prx)-DAlaNH2”, the “final HPLC purity” value came out at 98% and the isolated yield result was “approximate yield 2%”.

Take “AcDNal-DpClPhe-DPal-Ser-NicLys-SPL-Npg-IprLys-Pro-DAlaNH2”: the “final HPLC purity” value stood at 97.5% and the isolated yield came out at 33% yield.

“pGlu-His-Trp-Ser-Tyr-SPL-Nle-Arg-Pro-NEt”: the “final HPLC purity” value was found to be 98.3% and the isolated yield entry was “approximate yield 20%”.

For “pGlu-His-Trp-Ser(OBzl)-Tyr-SPL-Leu-Arg-Pro-Gly-NH2”, the “final HPLC purity” value came out at 96.0% and the isolated yield amounted to 31% yield.

As to “AcDNal-DpClPhe-DBal-Ser-Tyr-SPL-Leu-Arg-Pr-DAlaNH2”, the “final HPLC purity” value was 96.4% and the isolated yield result is reported as “approximate yield 3%”.

On to “pGlu-His-1Nal-Ser-Tyr-SPL-Leu-Arg-Pro-Gly-NH2”, for which the “final HPLC purity” value is recorded as 95.3% and the isolated yield entry is listed as “approximate yield 13%”.

Regarding “AcDNal-DpClPhe-DPal-Ser-Tyr-SPL-Npg-Arg-Pro-DAlaNH2”, the “final HPLC purity” value came out at 93.1% and the isolated yield is given as 4% yield.

For the substance “pGlu-His-pClPhe-Ser-Tyr-SPL-Leu-Arg-Pro-Gly-NH2”, the “final HPLC purity” value was found to be 97.2% and the isolated yield result is on record as “approximate yield 19%”.

Turning to “pGlu-His-Nal-Ser-Tyr-SPL-Leu-Arg-Pro-NEt”, the “final HPLC purity” value amounted to 95.2% and the isolated yield entry is “approximate yield 28%”.

On to “pGlu-DPhe-Trp-Ser-Tyr-SPL-Leu-Arg-Pro-Gly-NH2”, for which the “final HPLC purity” value was 97.3% and the isolated yield entry is recorded as “approximate yield 5%”.

In the case of “pGlu-His-Trp-Ser-Tyr-SPL-Tle-Arg-Pro-NEt”, the “final HPLC purity” value is given as 97.8% and the isolated yield result was “approximate yield 3%”.

“pGlu-His-INal-Ser-Tyr-SPL-Leu-Arg-Pro-NEt”: the “final HPLC purity” value is listed as 97.9% and the isolated yield entry was “approximate yield 20%”.

For the substance “AcDNal-DpCtPhe-DPal-Ser-IprLys-SPL-Npg-Arg-Pro-DAlaNH2”, the “final HPLC purity” value is on record as 98.8% and the isolated yield result is given as “approximative yield 30%”.
